Results are given in words; binding and its absence hold for the method and conditions named. Some binding calls cover weakened binding; strength is not graded here.
T1: Siglec-10 (Biacore analysis) (UniProt Q96LC7)
T1 sequence (looked up): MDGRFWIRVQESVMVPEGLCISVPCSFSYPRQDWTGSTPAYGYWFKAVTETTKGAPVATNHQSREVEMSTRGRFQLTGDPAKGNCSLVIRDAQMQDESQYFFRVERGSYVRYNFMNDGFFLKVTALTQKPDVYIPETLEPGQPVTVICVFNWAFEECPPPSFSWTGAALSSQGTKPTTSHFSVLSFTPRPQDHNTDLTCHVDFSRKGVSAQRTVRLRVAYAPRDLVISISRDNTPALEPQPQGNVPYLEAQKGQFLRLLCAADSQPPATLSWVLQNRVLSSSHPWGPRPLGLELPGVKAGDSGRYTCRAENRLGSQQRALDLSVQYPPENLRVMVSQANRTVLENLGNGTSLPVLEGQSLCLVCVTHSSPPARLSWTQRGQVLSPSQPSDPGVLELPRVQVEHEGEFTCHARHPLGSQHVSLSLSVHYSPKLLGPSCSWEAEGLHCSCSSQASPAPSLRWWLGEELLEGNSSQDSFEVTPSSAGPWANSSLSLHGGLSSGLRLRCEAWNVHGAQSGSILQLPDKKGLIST

B1: humanized 31F11 clone #21 (antibody, V domains shown)
VH: QVTLKESGPALVKPTQTLTLTCTFSGFSLSTSGMGLSWIRQPPGKALEWLAHIYWDDDKRYNPSLKSRLTISKDTSKNQVVLTMTNMDPVDTATYYCVRGLYGNWFFDVWGQGTTVTVSS
VL: DIVMTQSPATLSVSPGERATLSCKASQNVGTAVAWYQQKPGQAPRLLIYSASNRYTGVPARFSGSGSGTEFTLTISSLQSEDFAVYFCQQYSSYPLTFGGGTKVEIK
notes: also called hu-VHv1VLv2
B2: humanized 31F11 clone #22 (antibody, V domains shown)
VH: QVTLKESGPALVKPTQTLTLTCTFSGFSLSTSGMGLSWIRQPPGKALEWLAHIYWDDDKRYNPSLKSRLTISKDTSKNQVVLTMTNMDPVDTATYYCVRGLYGNWFFDVWGAGTTVTVSS
VL: DIVMTQSPATLSVSPGERATLSCKASQNVGTAVAWYQQKPGQAPRLLIYSASNRYTGVPARFSGSGSGTEFTLTISSLQSEDFAVYFCQQYSSYPLTFGGGTKVEIK
notes: also called hu-VHv2VLv2
B3: humanized 31F11 clone #23 (antibody, V domains shown)
VH: QVTLKESGPALVKPTQTLTLTCTFSGFSLSTSGMGLSWIRQPPGKALEWLAHIYWDDDKRYNPSLKSRLTISKDTSKNQVVLTMTNMDPVDTATYYCARGLYGNWFFDVWGQGTTVTVSS
VL: DIVMTQSPATLSVSPGERATLSCKASQNVGTAVAWYQQKPGQAPRLLIYSASNRYTGVPARFSGSGSGTEFTLTISSLQSEDFAVYFCQQYSSYPLTFGGGTKVEIK

What follows are binders tested against T1, Siglec-10 (Biacore analysis) (assay: Biacore).

binding, binds:
B1
B2
B3

Reference: patent US20240218067A1 (ONCOC4, published 2024)
